# Percent effect of library compounds

Source: ChEMBL document CHEMBL3988442, “University of Dundee, Small-Polar-MMV Screening Library” (2021).

A: 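Whole-cell growth test on Mycobacterium tuberculosis, read after 4 days in a medium based on cholesterol and the lipid DPPC; the read-out is not stated. Compounds at 50 µM. Direction is inferred from retests: higher values go with more growth inhibition. Size under these conditions: about 69,000 compounds, about 370 of them at 50% or above in at least one test.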
B: 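Whole-cell growth test on Mycobacterium tuberculosis, read after 3 days in glucose-containing 7H9 medium; the read-out is not stated. Tested at 50 µM. Higher reads as more growth inhibition (inferred: compounds with an IC50 in retests scored well above the rest). About 69,000 compounds were tested under these conditions; 1.1% (about 760) showed 50% or more at least once.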

The filed quantity is “Percent Effect” (%). The record does not define 0% and 100%; most values in the screen are far below 50% and negative numbers occur (in some assays of this library far below -100). The compounds are a random part of those screened. Two or more numbers in one place are separate tests of the same structure; such repeats can differ widely.

For c1ccc(CNc2ccccc2N2CCCC2)nc1 the result was A: 20.08%; B: 27.75%.
For O=C(O)C(F)(F)F.O=C(c1ccoc1)N1CC[C@@H](N2CCOCC2)[C@@H]1Cc1ccccc1 the result was A: -9.627%; B: 2.764%.
For O=C(Nc1ccccc1)c1ccc(NCc2ccccc2CO)nn1 the result was A: 16.22%; B: 20.26%.
For NCC1(c2cccc(C(F)(F)F)c2)CCCCC1 the result was A: 2.799%; B: 2.897%.
For CCOc1ccc(Cc2c(O)nc(SC)n(-c3ccccc3)c2=O)cc1 the result was A: -4.023%; B: -4.84%.
For CC(NC(=O)NCCCn1cccn1)c1ccccn1 (stereo not drawn) the result was A: -12.89% & -25.75%; B: -14.78%.
For CN(C)c1ncc2c(n1)N(C)CCN(CC1CC1)C2=O the result was A: -1.939%; B: 24.98%.
For O=C(CCc1cc2n(n1)CCCN(Cc1ccccc1F)C2)NC1CC1 the result was A: -4.112%; B: 11.1% & -4.324%.
For CN1CC(C(=O)Nc2ccc(OCC(F)(F)C(F)F)nc2)CC1=O (stereo not drawn) the result was A: -10.51%; B: -47.17% & -8.152%.
For Cc1ccc(C(=O)NCCNC(=O)c2cncnc2C)cc1F the result was A: 2.411% & -11.22%; B: -27.45%.
For [H][C@@]12C[C@H](C(=O)Nc3cccnc3)[C@@]([H])(CN(Cc3ccc(C)cc3)C1)O2 the result was A: -13.44% & 7.025%; B: -18.73%.
For Cc1nc(CN(C)Cc2cc3c(cc2OC(F)F)OCO3)oc1C the result was A: 11.83%; B: 18.68%.
For Cc1ccc(N2Cc3cnn(Cc4ccc(F)cc4)c3C2)nn1 the result was A: 13.52% & 16.91%; B: 15.49%.
For COC(=O)C(CNC(=O)Nc1nncs1)Cc1cccc(C)c1 (stereo not drawn) the result was A: -5.824%; B: 18.31%.
For NCCn1cc(C(=O)N2CCCCCC2c2ccco2)nn1 (stereo not drawn) the result was A: 7.293%; B: 2.277% & 16.75%.
For CCc1ocnc1C(=O)N1CCCC(n2nc(C)nc2C)C1 (stereo not drawn) the result was A: 10.18%; B: 21.12%.
For CC(CCn1cccn1)Nc1ccc(-c2nccn2C)nn1 (stereo not drawn) the result was A: 12.39%; B: 8.212%.
For CCN1CCCC(c2c(-c3ccccc3)ncn2Cc2cccnc2)C1 (stereo not drawn) the result was A: 6.472%; B: 22.17%.
For Fc1ccc(CN2CCc3ncnc(C4CCOC4)c3CC2)cc1.O=C(O)C(F)(F)F (stereo not drawn) the result was A: 7.646%; B: 16.16% & 1.023%.
For COCc1ccccc1C(=O)NCCCN1CCCC1C(=O)N(C)C (stereo not drawn) the result was A: -34.41%; B: -29.67% & -5.427%.
For CC(C)N(C)C(=O)c1ccc(CNc2ccncc2Cl)cc1 the result was A: -8.792%; B: -10.33%.
For CCN1CCN(C)C2(CCN(Cc3cccc(C)n3)CC2)C1=O.O=C(O)C(F)(F)F.O=C(O)C(F)(F)F the result was A: 13.93%; B: -8.404%.
For CO[C@H]1COCCN(Cc2c[nH]c3ccccc23)C1 the result was A: 13.38%; B: -6.06% & -1.683%.
For Clc1cccc2c1CCN(Cc1nc(CC3CC3)no1)C2 the result was A: 8.965%; B: 19.02%.
For O=C(O)C(F)(F)F.c1cc(CN2CCC3(CCOCC3COCC3CC3)CC2)co1 (stereo not drawn) the result was A: 26.63%; B: 5.23%.
For [H][C@@]12COC[C@]1([H])[C@H](NC(=O)c1cscn1)CN2c1ncc(F)cn1 the result was A: 7.282%; B: 9.624%.
For COCc1noc(CNc2nc(C3CCCC3)nc3c2CCNCC3)n1 the result was A: 10.59%; B: -7.309%.
For CO[C@H]1CN(C(=O)c2ccc3oc(C)cc3c2)C[C@@]12CCCO2 the result was A: 3.072%; B: 18.7%.
For CCCn1nc(C)c(-c2cncn2CCN(C)C2CCCC2)c1C.Cl the result was A: 3.998%; B: -8.307%.
For COC(=O)[C@@H]1Cc2ncn(C)c2CN1S(=O)(=O)c1ccc(Cl)cc1 the result was A: -2.99%; B: 2.256% & -3.533%.
For O=C(O)C(F)(F)F.[H][C@@]12CCN(C(=O)C(C)C)CC[C@]1(C(=O)N1CCOCC1)CCN2CC the result was A: -13.74%; B: -26.04%.
For CNC(=O)[C@@H]1CN(Cc2ccccc2)C[C@H]1C(=O)c1ccc(F)cc1 the result was A: -1.154% & -6.914%; B: 2.644%.
For Cc1ccc(-c2noc([C@H](N)CC(C)C)n2)nn1 the result was A: -18.27% & -4.448%; B: -18.42%.
For Cc1csc(CNC(=O)NCC(O)c2cccc(Cl)c2)n1 (stereo not drawn) the result was A: 26.96%; B: -19.01%.
For CNS(=O)(=O)Cc1ccc(CNC(=O)c2cccc(C)n2)cc1 the result was A: -27.78%; B: -18.29%.
For O=c1c(S(=O)(=O)N2CCCC2)cccn1Cc1ccc(F)cc1Cl the result was A: -11.66%; B: -3.244% & -10.29%.
For [H][C@@]12CCN(CCN3CCCC3)C[C@]1(C(=O)NCc1ccco1)CCO2 the result was A: -1.933%; B: 3.836%.
For CCCOc1cc(CNC(=O)Nc2ccccn2)ccn1 the result was A: -15.66%; B: -5.761%.
For CCOCC1COCCC12CCN(C(=O)CC1=CCCCC1)CC2 (stereo not drawn) the result was A: 18.33%; B: 2.819% & 16.06%.
For COC(=O)c1cccc(C(=O)NCc2ccc3c(c2)CCCN3C)c1 the result was A: 10.21%; B: 6.885%.
For Cc1cc(CN2CCN(C(=O)c3sccc3C(C)C)CC2)no1 the result was A: 7.72%; B: -0.905%.
For Cc1cccc(OCC2CCCN(C(=O)Cn3ccccc3=O)C2)c1 (stereo not drawn) the result was A: -2.551%; B: -12.88%.
For CCCc1nc(CN2CCCC2c2cnn(C)c2)cs1 (stereo not drawn) the result was A: -18.45%; B: -29.59%.
For Cl.c1csc(-c2noc(C3CNC3)n2)c1 the result was A: 4.291%; B: 29.18%.

Some entries from above, unchanged:

CNC(=O)[C@@H]1CN(Cc2ccccc2)C[C@H]1C(=O)c1ccc(F)cc1 gave A: -1.154% & -6.914%; B: 2.644%.
Fc1ccc(CN2CCc3ncnc(C4CCOC4)c3CC2)cc1.O=C(O)C(F)(F)F (stereo not drawn) gave A: 7.646%; B: 16.16% & 1.023%.
CCCc1nc(CN2CCCC2c2cnn(C)c2)cs1 (stereo not drawn) gave A: -18.45%; B: -29.59%.